Among all 52,000 sequences or so, about 210 (0.4%) were called active.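 Rule for the calls: active = gene whose silencing raises cell survival under the drug, median off-target-corrected z-score across its silencing RNAs 2 or more; inactive = the rest.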 This is one part of the list.
Assay: Resistance to Poly (ADP-Ribose) Polymerase inhibitor: Gene Identification via Genome-wide siRNA Screen
Conditions: mouse BRCA2 R2336H ES cells, olaparib, CellTiter-Glo viability; stronger effect = higher value
In short: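 Mouse BRCA2 R2336H ES cells were reverse-transfected with siRNA (20 nM final), treated at 48 h with 500 nM olaparib, and read by CellTiter-Glo after 72 h. Scores: MAD-based z per siRNA, median per gene, seed off-target correction.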

Sequence | z-score
GGAAGGACAAUCAGUUCCUTT against D130067I03Rik | inactive: -1.36
GGCAAAAAAUCUCAUUUGUTT against Rock1 | inactive: -0.113
GGUGGAGCACAUGUUCAGCTT against BC027246 | inactive: -0.295
GCAUGACCAGCAGUUCCUUTT against Itsn1 | inactive: -1.41
CCAGCACUCAAUCCUGUAATT against Olfr305 | inactive: -1.73
GGGAGUCAGAGUCAUGUAUTT against Mmrn2 | inactive: 0.77
GGAAUACAUAGCACACGGUTT against Apba2 | inactive: -0.338
GCCACAACUGUCAACAUAGTT against Exosc8 | inactive: -0.708
GGGCUAACCUAGGUGGACUTT against Dci | inactive: -0.599
GCACUGUCAUGAAAUAUUUTT against Mass1 | inactive: 0.623
GCGGUUCGCUGUUUGUUUCTT against 2310061J03Rik | inactive: 0.667
CGUGGUCAGCGAGAGAGAATT against Gm110 | inactive: -0.506
GGCUCUAAAAACAAAUGACTT against Asb4 | inactive: 0.788
GGACCUUAUGGCUUUGUAGTT against Ier5 | inactive: -1.83
CCAAACUUUUGUGGAACAGTT against Galnt9 | inactive: 0.858
CCGCAUCUAUGCAGGGCAATT against Coq7 | inactive: -2.06
GAAAAUCUUGACACUCCUGTT against Ifna9 | inactive: 1.3
GGAAAACUCUACCUUAUUGTT against Kif22 | inactive: 0.00536
GGAGAAGAACAGAACAUGATT against Igf2 | inactive: -0.131
GGACACUGUAAGUGUCAACTT against 9130020G10Rik | inactive: -0.298
GGAAUAGUAGCUCUUACUATT against D3Ertd250e | inactive: 0.0487
GCAAAGCUACUGUUCACCATT against Agtr1b | inactive: 1.14
GCCUUUAAGCAUGAUCCUGTT against Nnp1 | inactive: -0.766
CGCAGAGAAGGUCAUUAAATT against Il1f5 | inactive: 0.825
GGAAGAGAUGGCCAUAUACTT against Abcb1b | inactive: -0.278
GCCUUUAACUCCUACGUAGTT against Plxna4 | inactive: 1.78

Sequence | z-score
CCUUGAAGCCUAGAAAUGATT against Zcchc11 | inactive: -1.44
GGCUAUAGCAGCACAUUGGTT against Ylpm1 | inactive: -1.08
GGUACAGUGUCAUCAUGAATT against Olfr460 | inactive: 1.54
GGAAGAAUGGUUAAAGGGATT against 4833420K19Rik | inactive: 1.68
CCUAGAAAUGAUUGUUGUUTT against 5830426I05Rik | inactive: -1.58
CGAGAUGACCUCCUUUAUATT against Ephb3 | inactive: 0.578
CCUACAGAUAGGUAUGUAGTT against Exo1 | inactive: 1.25
CCCUAUGCAAUAUAUAGACTT against 4930488E11Rik | inactive: 0.0434
CGUGUUGAAAAACUCACAATT against V1rc22 | inactive: -0.586
GCAAUGUUUACGAAUGAGGTT against 2010309E21Rik | inactive: 0.573
GGGAAGAGCGCAUAGAUACTT against Clca2 | inactive: 2.58
CCCUGUAGAAAUUCAAGCCTT against BC034664 | inactive: -0.429
GGCAAGAAGAAGGAGAAGCTT against Atp4a | inactive: 0.741
GGCUUCAAGUCUGUUCAACTT against Slc35e4 | inactive: -0.174
CGGAGGCUUUUACCAAGUCTT against Tirap | inactive: -0.395
CCUAAUAUGCCAUGGUUCATT against Eef1a2 | inactive: -0.758
GGCCGUACCUAUGAUCUAUTT against Lrfn3 | inactive: -0.595
GGGUUCUGGGAAGGUAUAUTT against Olfr705 | inactive: -2.37
CCUUGGAAUCAAUGUCACGTT against Siah2 | inactive: -0.815
GAGUGUCAGGUCCAAGUUATT against V1rg3 | inactive: 0.0946
GGCGGAAAUUCCAAUGGUGTT against Fn1 | inactive: 0.575
GGUGCUAAAGAUCUGAGAUTT against BC025446 | inactive: -0.645
GGAGGAAGAAAUAAAUUACTT against 0610009A07Rik | inactive: 0.862
GGUUCCUCUUUUCCUGGUATT against Olfr1499 | inactive: -0.422
GGAAGUCUAAAGAACAGGATT against Fbxo8 | inactive: 1.03
GCGAAGAAGAAGUCGCUCCTT against Clk2 | inactive: 0.456

Quoted at random: 4 entries already listed, in no set order.
Sequence | z-score
CGGAGGCUUUUACCAAGUCTT against Tirap | inactive: -0.395
CGUGUUGAAAAACUCACAATT against V1rc22 | inactive: -0.586
CCCUGUAGAAAUUCAAGCCTT against BC034664 | inactive: -0.429
GCGAAGAAGAAGUCGCUCCTT against Clk2 | inactive: 0.456

More records:

Sequence | z-score
GGUAAAGUUGCUUAAUUAGTT against 1700060H10Rik | inactive: 0.884
GCCCAGUGUGCAAUUAAACTT against Uvrag1 | inactive: -0.406
CCAAAGUUUUAUCAGUUUGTT against Gpr87 | inactive: -0.469
GCCCUACAGCAGACUAGAATT against Vax2 | inactive: -1.92
AGCAGUUGGCUUUUCUAACTT against Paqr9 | inactive: 0.00097
GGUGUAGGGAAUUGUGAAUTT against Rpia | inactive: -1.02
GCCAGAAUCAGAUCUCUCGTT against Amigo | inactive: 0.818
GGUAACACUGUCCACCACUTT against Olfr348 | inactive: 1.35
GGGAAUUUAUGCAUUAGCATT against Kif2a | inactive: 0.368
GGAUGUCAAUGAGGUUUUUTT against Mpp5 | inactive: 0.2
GGCAAGGAGAAAGGAUUGUTT against Mgl1 | inactive: 0.0694
GCUCAACCCAUUCUUUGAUTT against Ddc8 | inactive: 0.369
GGAUAAAGUGAGGAUUCUATT against Pcdhga4 | inactive: -0.296
GGCGAUUUACAAGCUGAAGTT against Guca1b | inactive: -0.186
GCUACGAAGAAGCAUGCCUTT against 9630044O09Rik | inactive: 1.85
GCCAUACUACAUCACAGAGTT against S100a15 | inactive: 0.172
GGAAAAGGUUUUGUAGAAUTT against Pspc1 | inactive: 0.741
CCUGCCUGACAUUCCUAUUTT against Zdhhc19 | inactive: -0.933
GCAGUUAAAUCCCUUUCAUTT against 4930429M06Rik | inactive: 1.42
GGUCAUUGAGCUGAUGGACTT against Elovl1 | inactive: 0.856
CCUAUAAGUGAACUGUGAUTT against Aig1 | inactive: -1.16
GGAGUUCAUUGAUCAUUCUTT against Ndufb5 | inactive: 2
GCCUCUCAUUAGCAGUCAATT against Fbxl15 | inactive: 0.328
GCAUAAGAAGAAACACCUUTT against Usp17 | inactive: 1.34
GGCUGAAGACUACUUCCUATT against 4932416K20Rik | inactive: -1.71
GCAUGUAGUUCAUCAGUACTT against Tubgcp5 | inactive: -0.584

Sequence | z-score
GGUGCUAUGUGCGUUUGAUTT against 9830107B12 | inactive: 0.765
GGAGUACAUGACCACAGAUTT against AB041803 | inactive: -0.883
CCAUUAGCAAUGUGCUUCUTT against Unc13a | inactive: 0.0849
GAGAAUGACGGACAAGUGUTT against Timm9 | inactive: -0.0823
CCUGAAAUCCUGUAGCUACTT against Perld1 | inactive: -0.208
GGUGCAGAAUAUUGAAUGUTT against AI847670 | inactive: 0.0478
GGCUGUGAGCCGUAAGACUTT against Mrpl16 | inactive: 0.388
GGUGGAGAACUGAGAAUCUTT against Obp1a | inactive: 0.166
GCUUAAACAGCUUUACUUATT against Actr2 | inactive: 0.945
CCUUUGUAACUGGAAUUCUTT against Olfr197 | inactive: 0.0133
CCGGAGCUAACACCUACAGTT against 1700049L16Rik | inactive: -1.34
CGUAACAAGCAGGAAGCAATT against Xlr4 | inactive: -0.748
GGUCUUCUCGGGUCGAAAGTT against Cpt1a | inactive: -0.17
GGAAUGACUUCCCUACAAUTT against AI836376 | inactive: -1.67
GCAUUUGUUAAACCUGCCUTT against 1500041J02Rik | inactive: -0.727
GCCUUUCUAUGCCCAGCAUTT against BC018601 | inactive: -2.55
CGGAUUCCUGCUCUUAAGUTT against Tdrd3 | inactive: -0.188
GGAAGAUAAUAUCCUUUGGTT against Olfr734 | inactive: 0.204
UCUCAUGGAGUCUGCUGCUTT against Serpina1d | inactive: 0.366
CCGUCAGUGAAUUCUUGAATT against Birc5 | inactive: -1.83
GGAUUUAGGCCUUAUCAUCTT against Atf3 | inactive: -0.509
GCAACGUGAAACAUAUUCUTT against Cpb1 | inactive: 0.593
CCACGAAGAGCAAGAAAACTT against MGC118250 | inactive: -3.5e-05
GGAGAACACAAGAUUUAAATT against D930036B08Rik | inactive: 1.49
CCCUUUCGGGCAAUGGACUTT against Olfr986 | inactive: -1.16
CCCUGUUCGUAAUCAUUAUTT against Olfr467 | inactive: 1.56

Source: PubChem BioAssay AID1347423 (Functional Genomics Laboratory (NCATS/FGL), 2020)
